Drawing on publication PMC11488585, this text covers binding for 4 substances.

Chains of the proteins cited; added tags and fusions are not shown. Lines headed by an entry give the natural chain unless they say otherwise; changes in a name come on top.
UniProt P05556: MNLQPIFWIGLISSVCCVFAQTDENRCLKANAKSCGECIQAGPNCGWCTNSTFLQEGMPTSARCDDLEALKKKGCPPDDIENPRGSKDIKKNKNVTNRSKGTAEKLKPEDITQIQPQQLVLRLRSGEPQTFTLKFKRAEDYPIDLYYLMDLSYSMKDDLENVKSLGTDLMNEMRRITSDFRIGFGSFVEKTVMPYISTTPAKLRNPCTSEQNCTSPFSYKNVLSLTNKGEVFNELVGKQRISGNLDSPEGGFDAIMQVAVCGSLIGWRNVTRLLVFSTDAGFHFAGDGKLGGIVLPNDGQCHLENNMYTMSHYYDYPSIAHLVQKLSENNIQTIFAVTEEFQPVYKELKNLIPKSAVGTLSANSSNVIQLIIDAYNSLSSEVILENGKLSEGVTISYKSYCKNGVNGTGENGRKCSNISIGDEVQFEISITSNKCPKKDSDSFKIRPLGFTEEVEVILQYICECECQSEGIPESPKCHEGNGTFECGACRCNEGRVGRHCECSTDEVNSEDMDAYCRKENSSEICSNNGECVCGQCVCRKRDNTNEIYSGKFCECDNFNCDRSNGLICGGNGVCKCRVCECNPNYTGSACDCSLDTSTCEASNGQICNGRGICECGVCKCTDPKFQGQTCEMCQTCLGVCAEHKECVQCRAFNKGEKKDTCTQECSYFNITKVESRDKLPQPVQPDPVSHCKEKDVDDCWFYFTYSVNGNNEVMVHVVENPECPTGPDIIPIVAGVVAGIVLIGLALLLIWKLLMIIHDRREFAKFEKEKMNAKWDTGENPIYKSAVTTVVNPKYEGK
UniProt Q13485: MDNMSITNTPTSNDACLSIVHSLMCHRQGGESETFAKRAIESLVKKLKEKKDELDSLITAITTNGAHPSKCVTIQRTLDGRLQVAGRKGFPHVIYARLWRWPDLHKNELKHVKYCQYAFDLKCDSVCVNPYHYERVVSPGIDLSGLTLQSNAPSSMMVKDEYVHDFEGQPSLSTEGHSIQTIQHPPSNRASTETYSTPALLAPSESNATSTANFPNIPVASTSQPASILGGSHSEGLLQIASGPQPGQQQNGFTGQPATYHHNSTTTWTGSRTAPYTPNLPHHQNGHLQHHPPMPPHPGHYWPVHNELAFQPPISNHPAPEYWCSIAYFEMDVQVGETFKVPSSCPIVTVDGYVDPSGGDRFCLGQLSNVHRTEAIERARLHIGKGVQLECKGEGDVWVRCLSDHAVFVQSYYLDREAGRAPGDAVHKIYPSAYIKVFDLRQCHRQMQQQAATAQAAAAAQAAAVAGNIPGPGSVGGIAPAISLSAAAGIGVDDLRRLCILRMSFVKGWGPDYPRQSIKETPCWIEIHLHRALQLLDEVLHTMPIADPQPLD
UniProt Q8N6T7: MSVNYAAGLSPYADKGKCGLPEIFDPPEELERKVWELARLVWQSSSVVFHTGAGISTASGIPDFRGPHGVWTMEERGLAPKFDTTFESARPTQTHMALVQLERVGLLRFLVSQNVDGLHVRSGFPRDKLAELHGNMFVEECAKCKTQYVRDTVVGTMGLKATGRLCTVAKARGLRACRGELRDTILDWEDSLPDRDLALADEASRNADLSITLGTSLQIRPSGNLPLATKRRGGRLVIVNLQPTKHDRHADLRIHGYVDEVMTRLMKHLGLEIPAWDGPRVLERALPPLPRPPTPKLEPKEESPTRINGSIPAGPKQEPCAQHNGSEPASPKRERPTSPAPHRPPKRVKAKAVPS

No constants are given. Whether binding was seen depends on the method and setting. Binding seen in cells or lysates may run through a third protein. Here binding means that the protein was enriched with, or labelled near, the bait; the list need not be complete.

This experiment concerns the target ubiquitin-specific protease 10 (USP10), overexpressed from a lentivirus (UniProt Q14694). Briefly: affinity purification with mass spectrometry; PC cells overexpressing USP10 from a lentivirus; NP40 lysate; IP with anti-USP10 antibody or control IgG; trypsin digest; LC-MS/MS.
Take ITGB1 (from UniProt P05556 21-798): the binding result is “binds”.
The result for SMAD4 (from UniProt Q13485 1-552) reads “binds”; that for SIRT6 (from UniProt Q8N6T7 1-355), “binds”; that for RAF1 (from UniProt P04049 1-648), “binds”.
